From PMC10656286

Amino acid sequences for entries named in this document (tags omitted).
UniProt Q96CT2: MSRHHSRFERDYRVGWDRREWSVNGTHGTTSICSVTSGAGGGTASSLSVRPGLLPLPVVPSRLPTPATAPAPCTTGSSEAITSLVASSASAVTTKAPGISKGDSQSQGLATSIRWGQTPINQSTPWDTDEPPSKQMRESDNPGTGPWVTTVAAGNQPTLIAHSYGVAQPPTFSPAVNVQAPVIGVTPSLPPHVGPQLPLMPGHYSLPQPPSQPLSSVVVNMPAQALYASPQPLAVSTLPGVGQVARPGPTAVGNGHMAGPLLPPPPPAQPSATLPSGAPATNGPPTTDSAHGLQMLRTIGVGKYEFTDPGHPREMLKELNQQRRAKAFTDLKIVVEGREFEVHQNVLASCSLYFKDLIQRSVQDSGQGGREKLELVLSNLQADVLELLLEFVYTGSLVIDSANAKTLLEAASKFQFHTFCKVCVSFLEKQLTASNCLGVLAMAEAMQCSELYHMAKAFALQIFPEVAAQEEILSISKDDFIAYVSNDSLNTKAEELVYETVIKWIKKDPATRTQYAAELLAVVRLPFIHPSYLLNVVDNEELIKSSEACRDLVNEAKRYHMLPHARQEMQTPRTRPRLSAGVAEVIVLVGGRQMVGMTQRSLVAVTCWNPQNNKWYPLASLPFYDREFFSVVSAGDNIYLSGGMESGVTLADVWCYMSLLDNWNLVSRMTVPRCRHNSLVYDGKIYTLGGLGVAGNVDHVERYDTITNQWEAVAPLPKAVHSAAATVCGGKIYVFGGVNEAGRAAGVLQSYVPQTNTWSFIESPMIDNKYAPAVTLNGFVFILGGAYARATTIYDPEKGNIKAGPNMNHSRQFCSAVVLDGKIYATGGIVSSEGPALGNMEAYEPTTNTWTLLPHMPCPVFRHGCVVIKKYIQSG
UniProt O00571: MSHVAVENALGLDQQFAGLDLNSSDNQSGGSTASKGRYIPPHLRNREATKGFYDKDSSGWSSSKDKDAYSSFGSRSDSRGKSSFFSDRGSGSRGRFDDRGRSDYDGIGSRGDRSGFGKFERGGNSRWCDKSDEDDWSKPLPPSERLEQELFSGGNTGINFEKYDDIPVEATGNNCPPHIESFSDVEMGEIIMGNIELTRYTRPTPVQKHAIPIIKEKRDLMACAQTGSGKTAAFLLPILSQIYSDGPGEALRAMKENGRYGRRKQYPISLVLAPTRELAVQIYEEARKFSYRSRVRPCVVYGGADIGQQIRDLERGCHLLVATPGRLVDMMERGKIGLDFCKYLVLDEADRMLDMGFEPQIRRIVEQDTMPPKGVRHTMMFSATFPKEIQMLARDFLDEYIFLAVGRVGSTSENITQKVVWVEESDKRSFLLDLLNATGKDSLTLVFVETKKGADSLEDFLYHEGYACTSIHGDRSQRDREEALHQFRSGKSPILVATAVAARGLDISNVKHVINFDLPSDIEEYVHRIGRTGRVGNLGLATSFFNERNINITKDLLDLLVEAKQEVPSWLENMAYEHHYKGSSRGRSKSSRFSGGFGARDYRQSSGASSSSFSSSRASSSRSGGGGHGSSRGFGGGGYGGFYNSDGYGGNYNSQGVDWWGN

Target: Flag-KLHL29 (pCDH-Flag-KLHL29, stably expressed) (UniProt Q96CT2)
Assay: affinity purification with mass spectrometry; IP from BT549 and CAL51 cells stably expressing pCDH-Flag or pCDH-Flag-KLHL29, followed by MS analysis

binding: binds
Substance: DDX3X (endogenous, BT549 and CAL51) (from UniProt O00571 1-662)

Results are given in words; binding and its absence hold for the method and conditions named. In cells and extracts the contact can be indirect. These calls come from enrichment with a bait or labelling near it, and not all partners need be listed.
